Source: patent US9327060B2 (CARDINAL HEALTH SWITZERLAND 515 GmbH, priority 2009, dated 2016)
At least one structure is not confirmed: it was looked up by name or label, or the drawing left a doubt.

Key:
[1] = in vitro release kinetics of sirolimus and cilostazol from coated stent; type: physicochemical; conditions: stent of FIG. 11 (sirolimus and cilostazol in one EVA/BMA layer, 100 μg BMA overcoat); FIG. 10
[2] = system: monocyte chemotactic protein (MCP-1); assay: MCP-1 levels in the vascular wall, rapamycin delivered from a stent; type: in vivo
neointimal hyperplasia = assay: Porcine studies with rapamycin-coated stents, neointimal area; type: in vivo; conditions: porcine and rabbit models; nonerodible polymeric stent coating; 35-430 ug/15-18 mm coronary stent; maximal at about twenty-eight to thirty days

Q: Which in vitro release [1] does the source give for `CO[C@H]1C[C@@H]2CC[C@@H](C)[C@@](O)(O2)C(=O)C(=O)N2CCCC[C@H]2C(=O)O[C@H]([C@H](C)C[C@@H]2CC[C@@H](O)[C@H](OC)C2)CC(=O)[C@H](C)/C=C(\C)[C@@H](O)[C@@H](OC)C(=O)[C@H](C)C[C@H](C)/C=C/C=C/C=C/1C` [Rapamycin] here?
A: ~35%

Q: And the “monocyte chemotactic protein (MCP-1) levels in the vascular wall” value [2]?
A: highly effective in reducing

Q: And the “peak reduction in neointimal hyperplasia” value (neointimal hyperplasia)?
A: fifty to fifty-five
